Experimental data published in patent US7732416B2, “Avermectins substituted in the 4″-position having pesticidal properties” (Merial Limited, priority 2001, dated 2010).
Some of these results come from one statement about several compounds together.

How the values were obtained:
Type in all cases: in vivo
Plutella xylostella = experiment: Example B4 Activity against Plutella xylostella caterpillars (sprayed cabbage plants); details: 12.5 ppm spray liquor, first-stage caterpillars, 3 days
Spodoptera littoralis [1] = experiment: Example B1 Activity against Spodoptera littoralis (sprayed soya bean plants); details: 12.5 ppm spray liquor, first-stage caterpillars, 3 days
Heliothis virescens = experiment: Example B3 Activity against Heliothis virescens (eggs on filter paper); details: 0.8 ml test solution on 0- to 24-hour-old eggs, evaluation after 6 days
Tetranychus urticae = experiment: Example B7 Activity against Tetranychus urticae (sprayed bean plants); details: 12.5 ppm spray liquor, mixed population, 25° C., 6 days
Spodoptera littoralis [2] = experiment: Example B2 Activity against Spodoptera littoralis, systemic (maize seedlings); details: maize seedlings 6 days in test solution, L1 larvae on cut leaves, 4 days
Diabrotica balteata = experiment: Example B6 Activity against Diabrotica balteata (sprayed maize seedlings); details: 12.5 ppm spray liquor, second-stage larvae, 6 days

Measured: reduction in the pest population

CCC(C)C1OC2(C=CC1C)CC1CC(CC=C(C)C(OC3CC(OC)C(OC4CC(OC)C(NCc5cc(OC)ccc5O)C(C)O4)C(C)O3)C(C)C=CC=C3COC4C(O)C(C)=CC(C(=O)O1)C34O)O2 (stereo not drawn) [1.016]
more than 80%: all assays above

CCC(C)C1OC2(C=CC1C)CC1CC(CC=C(C)C(OC3CC(OC)C(OC4CC(OC)C(NCc5cccc([N+](=O)[O-])c5)C(C)O4)C(C)O3)C(C)C=CC=C3COC4C(O)C(C)=CC(C(=O)O1)C34O)O2 (stereo not drawn) [1.003]
more than 80%: all assays above

CCC(C)[C@H]1O[C@]2(C=C[C@@H]1C)C[C@@H]1C[C@@H](C/C=C(\C)[C@@H](O[C@H]3C[C@H](OC)[C@@H](O[C@H]4C[C@H](OC)[C@H](N(CCCc5ccccc5)CCCc5ccccc5)[C@H](C)O4)[C@H](C)O3)C(C)/C=C/C=C3\CO[C@@H]4[C@H](O)C(C)=C[C@@H](C(=O)O1)[C@]34O)O2 (stereo partly drawn) [3.004]
more than 80%: all assays above

CCC(C)C1OC2(C=CC1C)CC1CC(CC=C(C)C(OC3CC(OC)C(OC4CC(OC)C(NCc5ccc(C)o5)C(C)O4)C(C)O3)C(C)C=CC=C3COC4C(O)C(C)=CC(C(=O)O1)C34O)O2 (stereo not drawn) [1.032]
more than 80%: all assays above

CCC(C)C1OC2(C=CC1C)CC1CC(CC=C(C)C(OC3CC(OC)C(OC4CC(OC)C(NCc5ccc(C(C)(C)C)cc5)C(C)O4)C(C)O3)C(C)C=CC=C3COC4C(O)C(C)=CC(C(=O)O1)C34O)O2 (stereo not drawn) [1.041]
more than 80%: all assays above

CCC(C)C1OC2(C=CC1C)CC1CC(CC=C(C)C(OC3CC(OC)C(OC4CC(OC)C(NCc5cc(OC)c(OC)cc5Br)C(C)O4)C(C)O3)C(C)C=CC=C3COC4C(O)C(C)=CC(C(=O)O1)C34O)O2 (stereo not drawn) [1.130]
more than 80%: all assays above

CCC(C)C1OC2(C=CC1C)CC1CC(CC=C(C)C(OC3CC(OC)C(OC4CC(OC)C(NCc5cccc(Oc6ccc(OC)cc6)c5)C(C)O4)C(C)O3)C(C)C=CC=C3COC4C(O)C(C)=CC(C(=O)O1)C34O)O2 (stereo not drawn) [1.022]
more than 80%: all assays above

CCCCCC=CCCCNC1C(C)OC(OC2C(C)OC(OC3C(C)=CCC4CC(CC5(C=CC(C)C(C(C)CC)O5)O4)OC(=O)C4C=C(C)C(O)C5OCC(=CC=CC3C)C45O)CC2OC)CC1OC (stereo not drawn) [1.021]
more than 80%: all assays above

CCC(C)[C@H]1O[C@]2(C=C[C@@H]1C)C[C@@H]1C[C@@H](C/C=C(\C)[C@@H](O[C@H]3C[C@H](OC)[C@@H](O[C@H]4C[C@H](OC)[C@H](N(CC)CC)[C@H](C)O4)[C@H](C)O3)C(C)/C=C/C=C3\CO[C@@H]4[C@H](O)C(C)=C[C@@H](C(=O)O1)[C@]34O)O2 (stereo partly drawn) [3.007]
more than 80%: all assays above

CCC(C)C1OC2(C=CC1C)CC1CC(CC=C(C)C(OC3CC(OC)C(OC4CC(OC)C(NCc5cccc(Oc6ccc(Cl)cc6)c5)C(C)O4)C(C)O3)C(C)C=CC=C3COC4C(O)C(C)=CC(C(=O)O1)C34O)O2 (stereo not drawn) [1.153]
more than 80%: all assays above

CCC(C)C1OC2(C=CC1C)CC1CC(CC=C(C)C(OC3CC(OC)C(OC4CC(OC)C(NCc5ccncc5)C(C)O4)C(C)O3)C(C)C=CC=C3COC4C(O)C(C)=CC(C(=O)O1)C34O)O2 (stereo not drawn) [1.025]
more than 80%: all assays above

CCC(C)[C@H]1O[C@]2(C=C[C@@H]1C)C[C@@H]1C[C@@H](C/C=C(\C)[C@@H](O[C@H]3C[C@H](OC)[C@@H](O[C@H]4C[C@H](OC)[C@H](NCc5ccc(O)c([N+](=O)[O-])c5)[C@H](C)O4)[C@H](C)O3)C(C)/C=C/C=C3\CO[C@@H]4[C@H](O)C(C)=C[C@@H](C(=O)O1)[C@]34O)O2 (stereo partly drawn) [1.098]
more than 80%: all assays above

CCC(C)C1OC2(C=CC1C)CC1CC(CC=C(C)C(OC3CC(OC)C(OC4CC(OC)C(NCc5cccc(Oc6ccc(Cl)c(Cl)c6)c5)C(C)O4)C(C)O3)C(C)C=CC=C3COC4C(O)C(C)=CC(C(=O)O1)C34O)O2 (stereo not drawn) [1.152]
more than 80%: all assays above

CCC(C)C1OC2(C=CC1C)CC1CC(CC=C(C)C(OC3CC(OC)C(OC4CC(OC)C(NCC(C)(C)C)C(C)O4)C(C)O3)C(C)C=CC=C3COC4C(O)C(C)=CC(C(=O)O1)C34O)O2 (stereo not drawn) [1.075]
more than 80%: all assays above

CCC(C)C1OC2(C=CC1C)CC1CC(CC=C(C)C(OC3CC(OC)C(OC4CC(OC)C(NCc5cccc(C(=O)O)c5)C(C)O4)C(C)O3)C(C)C=CC=C3COC4C(O)C(C)=CC(C(=O)O1)C34O)O2 (stereo not drawn) [1.012]
more than 80%: all assays above

CCC(C)C1OC2(C=CC1C)CC1CC(CC=C(C)C(OC3CC(OC)C(OC4CC(OC)C(Nc5ccc6ccccc6c5)C(C)O4)C(C)O3)C(C)C=CC=C3COC4C(O)C(C)=CC(C(=O)O1)C34O)O2 (stereo not drawn) [1.143]
more than 80%: all assays above

CCC(C)[C@H]1O[C@]2(C=C[C@@H]1C)C[C@@H]1C[C@@H](C/C=C(\C)[C@@H](O[C@H]3C[C@H](OC)[C@@H](O[C@H]4C[C@H](OC)[C@H](N(C)Cc5ccc6ccccc6c5)[C@H](C)O4)[C@H](C)O3)C(C)/C=C/C=C3\CO[C@@H]4[C@H](O)C(C)=C[C@@H](C(=O)O1)[C@]34O)O2 (stereo partly drawn) [2.077]
more than 80%: all assays above

CCC(C)C1OC2(C=CC1C)CC1CC(CC=C(C)C(OC3CC(OC)C(OC4CC(OC)C(NCc5cc(C)c(O)c(C)c5)C(C)O4)C(C)O3)C(C)C=CC=C3COC4C(O)C(C)=CC(C(=O)O1)C34O)O2 (stereo not drawn) [1.134]
more than 80%: all assays above
